The results in this text go back to patent US20140242609A1, “Diagnosis and treatment of kidney stones, methods and compositions therefor” (Washington University, priority 2013, published 2014).

Data set [1] in a line: 24 hr urinalysis in metabolic cages, plasma and urine electrolytes. The class given is in vivo, mouse. How it is done:
Age (9-10 weeks old) and sex (male) matched wild-type and CLDN14 KO mice were housed individually in metabolic cages (Harvard Apparatus) with free access to water and food for 24 hr. Urine was collected under mineral oil. The plasma and urine Ca^++ and Mg^2+ levels were determined with atomic flame absorption spectrophotometer (PerkinElmer). The plasma (P) and urine (U) electrolyte levels were determined with the Roche Cobas clinical analyzer (Roche Diagnostics). […] The fractional excretion of electrolytes was calculated using the following equation: FEion=V×Uion/(GFR×Pion), where GFR was calculated according to the clearance rate of creatinine (GFR=V×Ucreatinine/Pcreatinine).
Mice were housed individually in metabolic cages (Harvard Apparatus) with free access to water and food for 24 hr. Urine was collected under mineral oil. The plasma and urine Ca^++ and Mg^++ levels were determined with atomic flame absorption spectrophotometer (PerkinElmer). The creatinine levels were measured with an enzymatic method that was independent of plasma chromogens.

A short description of data set [2]: 1 hr renal clearance measurements (FITC-inulin), plasma and urine electrolytes. The class given is in vivo, mouse. How it is done: (§1) The method for performing renal clearance measurements in the mouse has been described by Hou et al., (2007; 2009). Mice were anesthetized by i.p. injection of Inactin (Sigma; 100 mg/kg). The jugular vein was catheterized for i.v. infusion of 0.9% saline at 2 μL/min, with 1% FITC-inulin included in the infusate. After an equilibration period of 60 min, renal clearance measurements were carried out for a 60 min period. Urine was collected under mineral oil, and 30 μL blood sample was taken at hourly intervals. Urine and plasma Ca^2+ and Mg^2+ concentrations were measured by atomic flame absorption spectrophotometer (PerkinElmer). Urine and plasma FITC-inulin levels were measured in 100 mM HEPES buffer (pH7.0) with fluorescence spectrophotometer (BioTek). The fractional excretion of electrolytes was calculated using the following equation FEion=V×Uion/(GFR×Pion), where GFR was calculated according to the clearance rate of FITC-inulin (GFR=V×Uinulin/Pinulin).
as §1, with “Hou, J.,” for “Hou”, “2007 and Hou, J., et al., 2009.” for “(2007; 2009).”, “(Sigma:” for “(Sigma;”, “Ca^++” for “Ca^2+”, “Mg^++” for “Mg^2+”, “(PerkinEhner).” for “(PerkinElmer).”

[3] abbreviates: WT pre-treated with furosemide 40 mg/kg BW−1 per day, Veh + Furo = furosemide alone.
[4] abbreviates: WT + CsA (25 mg/kg BW−1 per day, 6 days), 2 hr, Veh = CsA alone.
Setting [5] is: WT, 2 hr, single dose 30 mg/kg BW−1.
Setting [6] is: WT, 8 hr, single dose 30 mg/kg BW−1.
Setting [7] is: claudin-14 KO, 2 hr, single dose 30 mg/kg BW−1.

With `O=C(CCCCCCC(=O)Nc1ccccc1)NO` [SAHA, Suberanilohydroxamic acid], the GFR in data set [1] (CLDN14 KO, same SAHA regimen) is 2.42 ± 0.29 ml/24 h · g; in data set [1] (setting [3]) it was 1.69 ± 0.13 ml/24 h · g; in data set [1] (WT, SAHA 10 mg/kg BW−1 per day) it was 2.09 ± 0.51 ^ ml/24 h · g. Moreover, the UV in data set [1] (CLDN14 KO, same SAHA regimen) is listed as 44.03 ± 2.07 ul/24 h · g; in data set [1] (setting [3]), 110.59 ± 9.03 ul/24 h · g; in data set [1] (WT, SAHA 10 mg/kg BW−1 per day) it was 37.11 ± 4.54 ^ ul/24 h · g.

As to `C[C@@H](NCCCc1cccc(C(F)(F)F)c1)c1cccc2ccccc12` [cinacalcet], the “GFR (glomerular filtration rate)” value was found to be 0.52 ± 0.08 mL/h/g in data set [2] (setting [4]), 0.44 ± 0.06 mL/h/g in data set [2] (setting [5]), 0.28 ± 0.03 mL/h/g in data set [2] (setting [6]) and 0.36 ± 0.06 mL/h/g in data set [2] (setting [7]). Besides, the “UV (urine volume)” value in data set [2] (setting [4]) amounted to 14.98 ± 3.97 µL/h/g; in data set [2] (setting [5]) it was 6.65 ± 1.14 µL/h/g; in data set [2] (setting [6]), 7.74 ± 2.13 µL/h/g; in data set [2] (setting [7]) it was 4.38 ± 0.68 µL/h/g. Moreover, the Weight stood at 20.56 ± 0.18 g in data set [2] (setting [4]), 22.88 ± 1.39 g in data set [2] (setting [5]), 22.72 ± 0.20 g in data set [2] (setting [6]) and 21.80 ± 0.97 g in data set [2] (setting [7]).

Turning to `NS(=O)(=O)c1cc(C(=O)O)c(NCc2ccco2)cc1Cl` [Furo, Furosemide], in data set [1] (setting [3]), the GFR worked out at 1.77 ± 0.44 ml/24 h · g and the UV was 137.11 ± 15.95 ul/24 h · g.

For the molecule `CC(C)(Cc1ccc2ccccc2c1)NC[C@@H](O)COc1cccc(Cl)c1C#N` [NPS2143], the “GFR (glomerular filtration rate)” value came out at 0.41 ± 0.06 mL/h/g in data set [2] (setting [4]), 0.51 ± 0.06 mL/h/g in data set [2] (setting [5]), 0.44 ± 0.08 mL/h/g in data set [2] (setting [6]) and 0.34 ± 0.02 mL/h/g in data set [2] (setting [7]). Moreover, the “UV (urine volume)” value in data set [2] (setting [4]) amounted to 9.03 ± 3.47 µL/h/g; in data set [2] (setting [5]), 7.91 ± 1.34 µL/h/g; in data set [2] (setting [6]), 7.14 ± 1.25 µL/h/g; in data set [2] (setting [7]) it was 3.63 ± 0.06 µL/h/g. Also, the Weight in data set [2] (setting [4]) turned out to be 20.77 ± 0.58 g; in data set [2] (setting [5]), 22.10 ± 0.38 g; in data set [2] (setting [6]), 21.73 ± 0.27 g; in data set [2] (setting [7]), 23.86 ± 0.86 g.
